Data source: PubChem BioAssay AID686943 (Drosophila RNAi Screening Center, 2013)
Assay: 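Search across the genome for regulators of signalling from receptor tyrosine kinase to ERK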 (primary screen). System: Drosophila S2R+ haemocyte-like cells expressing YFP-tagged ERK (Rolled). Reagent: long dsRNA against Drosophila genes. Challenge: insulin stimulation versus unstimulated cells; dose and duration not given. Detection: 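Antibody staining for doubly phosphorylated ERK divided by ERK-YFP signal, as plate z-scores, in insulin-treated and untreated cells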. Scale: replicate 1, z-score of dpERK with insulin: higher = more active ERK per ERK-YFP after insulin.
In all, the deposit lists about 23,000 reagents; shown is a random part of those that have a named target and a result. 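Extra replicates exist only for a retested subset of genes; insulin dose and duration not given; both raised and lowered dpERK matter.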 Reagents against one gene are numbered here. Not all columns of the deposit are shown. Not given: the amount of reagent, the time to read-out.

Cdc14 (Cell division cycle 14)
- replicate 1, z-score of dpERK with insulin: 0.27

Yif1 (Yip1-interacting factor 1)
- replicate 1, z-score of dpERK with insulin: 0.19

CG12521
- replicate 1, z-score of dpERK with insulin: 0.19

CG42807
- replicate 1, z-score of dpERK with insulin: -0.03

Obp8a (Odorant-binding protein 8a)
- replicate 1, z-score of dpERK with insulin: -0.18

CG8841
- replicate 1, z-score of dpERK with insulin: -0.34

CG12241
- replicate 1, z-score of dpERK with insulin: 1.13

CG10680
- replicate 1, z-score of dpERK with insulin: 0.05

CG31191 #1
- replicate 1, z-score of dpERK with insulin: 0

CG31191 #2
- replicate 1, z-score of dpERK with insulin: -0.94

CG31191 #3
- replicate 1, z-score of dpERK with insulin: -1.53

Dop2R (Dopamine 2-like receptor) #1
- replicate 1, z-score of dpERK with insulin: 0.53

Dop2R (Dopamine 2-like receptor) #2
- replicate 1, z-score of dpERK with insulin: 0.26

spn-F
- replicate 1, z-score of dpERK with insulin: -0.41

Next part; the last 2 above are carried over.
Dop2R (Dopamine 2-like receptor) #2
- replicate 1, z-score of dpERK with insulin: 0.26

spn-F
- replicate 1, z-score of dpERK with insulin: -0.41

CG42813
- replicate 1, z-score of dpERK with insulin: -0.02

CG4465
- replicate 1, z-score of dpERK with insulin: -0.53

Gs1 (Glutamine synthetase 1)
- replicate 1, z-score of dpERK with insulin: 1.11

alpha-Est4aPsi (pseudo)
- replicate 1, z-score of dpERK with insulin: 0.3

Ncc69 (sodium chloride cotransporter 69) #1
- replicate 1, z-score of dpERK with insulin: -0.45

Ncc69 (sodium chloride cotransporter 69) #2
- replicate 1, z-score of dpERK with insulin: 2.72

p38c (p38c MAP kinase)
- replicate 1, z-score of dpERK with insulin: -0.09

Pros28.2 (retired record)
- replicate 1, z-score of dpERK with insulin: -0.58

Past1 (Putative Achaete Scute Target 1)
- replicate 1, z-score of dpERK with insulin: -0.32

Nach
- replicate 1, z-score of dpERK with insulin: -0.1

CG14564 #1
- replicate 1, z-score of dpERK with insulin: 0.45

CG14564 #2
- replicate 1, z-score of dpERK with insulin: 0.03

Uhg3 (U snoRNA host gene 3)
- replicate 1, z-score of dpERK with insulin: 0.56

Dfd (Deformed)
- replicate 1, z-score of dpERK with insulin: 0.99

Asx (Additional sex combs)
- replicate 1, z-score of dpERK with insulin: -0.34

up (upheld)
- replicate 1, z-score of dpERK with insulin: 0.48

CG13144
- replicate 1, z-score of dpERK with insulin: -0.9
